Article PMC4638101
No constants are given. Whether binding was seen depends on the method and setting. For some assays here: In cells and extracts the contact can be indirect. For some assays here: Binding can be weak; no strength is given. For some assays here: Where a sequence is shown, tags or fusion partners need not be part of it.

Experiments:
CP190-V5 (Drosophila) = target: T1, CP190-V5 (Drosophila) (UniProt Q24478); assay: co-IP; S2 cells coexpressing a FLAG-tagged EAST variant and a V5-tagged insulator protein; precipitation with anti-V5, blot for FLAG
T1 sequence: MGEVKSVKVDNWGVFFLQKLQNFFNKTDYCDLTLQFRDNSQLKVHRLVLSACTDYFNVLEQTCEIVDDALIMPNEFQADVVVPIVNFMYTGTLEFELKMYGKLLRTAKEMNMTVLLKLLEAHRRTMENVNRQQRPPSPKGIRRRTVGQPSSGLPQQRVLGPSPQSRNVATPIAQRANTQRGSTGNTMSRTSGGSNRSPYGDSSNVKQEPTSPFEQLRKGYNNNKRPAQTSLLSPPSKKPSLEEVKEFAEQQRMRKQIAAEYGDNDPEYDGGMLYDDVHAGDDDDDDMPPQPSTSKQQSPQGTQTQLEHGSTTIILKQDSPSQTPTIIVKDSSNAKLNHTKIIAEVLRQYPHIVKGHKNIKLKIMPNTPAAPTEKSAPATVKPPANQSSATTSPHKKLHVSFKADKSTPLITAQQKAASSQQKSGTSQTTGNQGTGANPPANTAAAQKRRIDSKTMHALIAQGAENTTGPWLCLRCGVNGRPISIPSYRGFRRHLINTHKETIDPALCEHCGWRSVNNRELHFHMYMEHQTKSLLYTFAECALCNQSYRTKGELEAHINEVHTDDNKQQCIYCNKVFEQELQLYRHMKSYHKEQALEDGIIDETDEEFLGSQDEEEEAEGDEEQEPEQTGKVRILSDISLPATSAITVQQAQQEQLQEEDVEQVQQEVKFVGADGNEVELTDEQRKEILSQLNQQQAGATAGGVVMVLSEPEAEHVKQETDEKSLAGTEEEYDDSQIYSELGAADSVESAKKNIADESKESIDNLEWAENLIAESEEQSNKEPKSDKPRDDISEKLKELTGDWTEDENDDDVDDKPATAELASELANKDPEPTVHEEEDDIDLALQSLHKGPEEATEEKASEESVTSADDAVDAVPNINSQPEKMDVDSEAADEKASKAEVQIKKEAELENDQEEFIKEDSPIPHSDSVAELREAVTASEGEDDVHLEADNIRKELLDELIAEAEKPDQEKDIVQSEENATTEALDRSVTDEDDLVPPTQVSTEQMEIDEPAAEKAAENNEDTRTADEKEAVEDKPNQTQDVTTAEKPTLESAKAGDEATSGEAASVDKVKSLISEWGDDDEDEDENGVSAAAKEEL

[1] = target: T2, Mod(mdg4)-67.2-V5 (Drosophila) (UniProt Q86B87); assay: as above
T2 sequence: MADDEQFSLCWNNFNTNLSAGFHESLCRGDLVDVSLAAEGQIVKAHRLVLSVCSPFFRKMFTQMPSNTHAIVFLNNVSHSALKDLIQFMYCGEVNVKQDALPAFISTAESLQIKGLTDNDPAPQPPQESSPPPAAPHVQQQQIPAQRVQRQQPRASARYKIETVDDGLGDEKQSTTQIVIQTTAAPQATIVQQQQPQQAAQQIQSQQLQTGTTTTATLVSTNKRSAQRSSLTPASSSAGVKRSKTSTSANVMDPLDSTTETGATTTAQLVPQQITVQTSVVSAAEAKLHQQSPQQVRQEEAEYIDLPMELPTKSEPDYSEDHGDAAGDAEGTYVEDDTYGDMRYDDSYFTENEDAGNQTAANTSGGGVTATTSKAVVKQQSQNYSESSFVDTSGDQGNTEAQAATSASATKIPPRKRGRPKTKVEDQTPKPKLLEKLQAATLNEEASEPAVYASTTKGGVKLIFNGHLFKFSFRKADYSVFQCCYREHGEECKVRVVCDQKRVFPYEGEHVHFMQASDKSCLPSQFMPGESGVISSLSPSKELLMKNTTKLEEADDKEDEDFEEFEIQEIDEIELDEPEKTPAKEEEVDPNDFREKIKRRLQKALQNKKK

[2] = target: T3, CP190, endogenous in S2 cells (Drosophila (endogenous in S2 cells)) (UniProt Q24478); assay: co-IP; S2 cells transfected with FLAG-tagged EAST variants; precipitation with antibodies raised to Su(Hw), Mod(mdg4)-67.2 or CP190 (endogenous proteins), blot for FLAG
T3 sequence: T1 sequence

[3] = target: T4, Mod(mdg4)-67.2, endogenous in S2 cells (Drosophila (endogenous in S2 cells)) (UniProt Q86B87); assay: as above
T4 sequence: T2 sequence

[4] = target: EAST^1-1995 (yeast two-hybrid fusion) (Drosophila); assay: two-hybrid; yeast pJ694A; fusions to GAL4-activating or DNA-binding domains; growth at 30°C on media without tryptophan, leucine, histidine and adenine (high stringency) or without tryptophan, leucine, histidine and with 5 mM 3-aminotriazole (medium stringency)
[5] = target: EAST^1-933 (yeast two-hybrid fusion) (Drosophila); assay: as above
[6] = target: EAST^1995-2362 (yeast two-hybrid fusion) (Drosophila); assay: as above
[7] = target: EAST^933-1995 (yeast two-hybrid fusion) (Drosophila) (UniProt Q9NGR9); assay: as above
[8] = target: EAST^933-2362 (yeast two-hybrid fusion) (Drosophila); assay: as above

Molecule: EAST tagged with a triple FLAG epitope (EAST-FLAG), full length (Drosophila)
- binding (CP190-V5 (Drosophila)): binds
- binding [1]: binds
- binding [2]: binds
- binding [3]: binds

Molecule: EAST^1-1995-FLAG (Drosophila) (domain or fragment)
- binding (CP190-V5 (Drosophila)): binds
- binding [1]: binds
- binding [2]: binds
- binding [3]: binds

Molecule: EAST^933-2362-FLAG (Drosophila) (domain or fragment)
- binding (CP190-V5 (Drosophila)): binds
- binding [1]: binds
- binding [2]: binds
- binding [3]: binds

B1: Su(Hw) (yeast two-hybrid fusion) (protein, UniProt P08970 1-941)
chain: MSASKEGKEKKGKLLGVENISPPKDKRPATRMKLLNDVGAGEDSEASTTTTTSRTPSNKQEKRGSVAGSRIKILNEEILGTPKTEKRGATKSTAPAASTVKILNEKKTPSATVTAVETTKIKTSPSKRKKMEHYVLQAVKSENTKADTTVTVVTEEDDTIDFILADDEEVVPGRIENNNGQEIVVTEDDEDLGEDGDEDGEDSSGKGNSSQTKIKEIVEHVCGKCYKTFRRVQSLKKHLEFCRYDSGYHLRKADMLKNLEKIEKDAVVMEKKDICFCCSESYDTFHLGHINCPDCPKSFKTQTSYERHIFITHSEFSDFPCSICNANLRSEALLALHEEQHKSRGKPYACKICGKDFTRSYHLKRHQKYSSCSSNETDTMSCKVCDRVFYRLDNLRSHLKQHLGTQVVKKPEYMCHTCKNCFYSLSTLNIHIRTHTGEKPFDCDLCDKKFSALVALKKHRRYHTGEKPYSCTVCNQAFAVKEVLNRHMKRHTGERPHKCDECGKSFIQATQLRTHSKTHIRPFPCEQCDEKFKTEKQLERHVKTHSRTKRPVFSCAECKRNFRTPALLKEHMDEGKHSPKQQRSSMRSAVKIMERTDCAICDKNFDSSDTLRRHIRTVHECDPDDIFGVEPHPSKRAKKDIESEEVVPVALNTSAGSLISSQTDGNGVVVREFLVDEGDGAAQTITLENETYTILPLDGAIEGEQLTDEAGVKPEAKKEEAQVSPVVKKEQRKSLAASLAAAIADNLEESCSEDDFSGEILTEEDIKLKENVGKLIDMLVDPPILKKYGWPNAPEETVLCKVIENCGHDLTKGGENYAELDYGSRMREYCKLLFTVVIHNDSIKSLLNNFPIDDVIEYVLGDEDQDEGGLDKDNESHSGDEEAVSVTGETKTNEIREKPEKKEVSAKSEKKEIVGKAVDKDNSEEVVRENKKKPVGEQEKA
- binding [4]: no binding
- binding [5]: no binding
- binding [6]: no binding
- binding [7]: no binding
- binding [8]: no binding
